Measured values reported in the supplement of paper PMC6078165.
± gives the standard deviation of the averaged measurements. The reference is the same well before dosing, and untreated signal decays as well.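 Cells used are triple-negative breast cancer lines, either basal-like or mesenchymal-like, grown in the absence of fibroblasts. Lower red signal means mitochondrial integrity is lost, a surrogate for apoptosis.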

How the values were obtained:
[1] = test system: Hs578T; assay: relative JC-1 red fluorescence (viability) vs pre-drug, monoculture (fraction); higher = more viable cancer cells; settings: coculture fibroblast: none (monoculture)
Procedure: (§1)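 JC-1 labelled TNBC cells grown in monoculture (density kept equal with unlabelled cancer cells) in 384-well plates in FluoroBrite medium, treated with one of 42 anticancer drugs at 0.1, 1, 10 or 100 uM. JC-1 red fluorescence (mitochondrial integrity, surrogate of apoptotic death) was read by plate reader every 8 h for 72 h. Values are normalised to each well's pre-drug value, with background from alamethicin. The stock of one drug was tenfold lower, so its dose labels may be too high. Monoculture values are repeated alongside each fibroblast plate and are averaged here.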

[2] = test system: HCC1143; assay: as above; settings: coculture fibroblast: none (monoculture)
Procedure: as §1

O=C(O)C1(C(=O)O)CCC1.[NH2-].[NH2-].[Pt+2] [Carboplatin]
relative JC-1 red fluorescence ([1]; 0.1 µM, 8 h): 0.841 ± 0.036
relative JC-1 red fluorescence ([1]; 0.1 µM, 16 h): 0.717 ± 0.039
relative JC-1 red fluorescence ([1]; 0.1 µM, 24 h): 0.705 ± 0.012
relative JC-1 red fluorescence ([1]; 0.1 µM, 32 h): 0.634 ± 0.018
relative JC-1 red fluorescence ([1]; 0.1 µM, 40 h): 0.61 ± 0.024
relative JC-1 red fluorescence ([1]; 0.1 µM, 48 h): 0.606 ± 0.037
relative JC-1 red fluorescence ([1]; 0.1 µM, 56 h): 0.583 ± 0.036
relative JC-1 red fluorescence ([1]; 0.1 µM, 64 h): 0.591 ± 0.053
relative JC-1 red fluorescence ([1]; 0.1 µM, 72 h): 0.581 ± 0.052
relative JC-1 red fluorescence ([1]; 1 µM, 8 h): 0.7748 ± 0.0032
relative JC-1 red fluorescence ([1]; 1 µM, 16 h): 0.676 ± 0.019
relative JC-1 red fluorescence ([1]; 1 µM, 24 h): 0.629 ± 0.02
relative JC-1 red fluorescence ([1]; 1 µM, 32 h): 0.5404 ± 0.0053
relative JC-1 red fluorescence ([1]; 1 µM, 40 h): 0.49262 ± 0.00037
relative JC-1 red fluorescence ([1]; 1 µM, 48 h): 0.465 ± 0.0073
relative JC-1 red fluorescence ([1]; 1 µM, 56 h): 0.44 ± 0.0075
relative JC-1 red fluorescence ([1]; 1 µM, 64 h): 0.438 ± 0.0086
relative JC-1 red fluorescence ([1]; 1 µM, 72 h): 0.432 ± 0.0091
relative JC-1 red fluorescence ([1]; 10 µM, 8 h): 0.7981 ± 0.0014
relative JC-1 red fluorescence ([1]; 10 µM, 16 h): 0.6823 ± 0.0012
relative JC-1 red fluorescence ([1]; 10 µM, 24 h): 0.634 ± 0.0098
relative JC-1 red fluorescence ([1]; 10 µM, 32 h): 0.5726 ± 0.0019
relative JC-1 red fluorescence ([1]; 10 µM, 40 h): 0.531 ± 0.011
relative JC-1 red fluorescence ([1]; 10 µM, 48 h): 0.5137 ± 0.005
relative JC-1 red fluorescence ([1]; 10 µM, 56 h): 0.488 ± 0.01
relative JC-1 red fluorescence ([1]; 10 µM, 64 h): 0.483 ± 0.017
relative JC-1 red fluorescence ([1]; 10 µM, 72 h): 0.469 ± 0.018
relative JC-1 red fluorescence ([1]; 100 µM, 8 h): 0.781 ± 0.016
relative JC-1 red fluorescence ([1]; 100 µM, 16 h): 0.7 ± 0.0092
relative JC-1 red fluorescence ([1]; 100 µM, 24 h): 0.712 ± 0.027
relative JC-1 red fluorescence ([1]; 100 µM, 32 h): 0.622 ± 0.04
relative JC-1 red fluorescence ([1]; 100 µM, 40 h): 0.583 ± 0.053
relative JC-1 red fluorescence ([1]; 100 µM, 48 h): 0.583 ± 0.06
relative JC-1 red fluorescence ([1]; 100 µM, 56 h): 0.576 ± 0.067
relative JC-1 red fluorescence ([1]; 100 µM, 64 h): 0.602 ± 0.069
relative JC-1 red fluorescence ([1]; 100 µM, 72 h): 0.614 ± 0.074
relative JC-1 red fluorescence ([2]; 0.1 µM, 8 h): 0.8902 ± 0.0056
relative JC-1 red fluorescence ([2]; 0.1 µM, 16 h): 0.82 ± 0.015
relative JC-1 red fluorescence ([2]; 0.1 µM, 24 h): 0.758 ± 0.021
relative JC-1 red fluorescence ([2]; 0.1 µM, 32 h): 0.712 ± 0.023
relative JC-1 red fluorescence ([2]; 0.1 µM, 40 h): 0.665 ± 0.022
relative JC-1 red fluorescence ([2]; 0.1 µM, 48 h): 0.633 ± 0.016
relative JC-1 red fluorescence ([2]; 0.1 µM, 56 h): 0.608 ± 0.011
relative JC-1 red fluorescence ([2]; 0.1 µM, 64 h): 0.594 ± 0.013
relative JC-1 red fluorescence ([2]; 0.1 µM, 72 h): 0.58 ± 0.013
relative JC-1 red fluorescence ([2]; 1 µM, 8 h): 0.853 ± 0.0094
relative JC-1 red fluorescence ([2]; 1 µM, 16 h): 0.7767 ± 0.0031
relative JC-1 red fluorescence ([2]; 1 µM, 24 h): 0.723 ± 0.0098
relative JC-1 red fluorescence ([2]; 1 µM, 32 h): 0.686 ± 0.02
relative JC-1 red fluorescence ([2]; 1 µM, 40 h): 0.64 ± 0.026
relative JC-1 red fluorescence ([2]; 1 µM, 48 h): 0.617 ± 0.032
relative JC-1 red fluorescence ([2]; 1 µM, 56 h): 0.598 ± 0.031
relative JC-1 red fluorescence ([2]; 1 µM, 64 h): 0.583 ± 0.038
relative JC-1 red fluorescence ([2]; 1 µM, 72 h): 0.568 ± 0.038
relative JC-1 red fluorescence ([2]; 10 µM, 8 h): 0.8786 ± 0.0019
relative JC-1 red fluorescence ([2]; 10 µM, 16 h): 0.7965 ± 0.0076
relative JC-1 red fluorescence ([2]; 10 µM, 24 h): 0.73211 ± 0.00015
relative JC-1 red fluorescence ([2]; 10 µM, 32 h): 0.6719 ± 0.0037
relative JC-1 red fluorescence ([2]; 10 µM, 40 h): 0.621 ± 0.0055
relative JC-1 red fluorescence ([2]; 10 µM, 48 h): 0.583 ± 0.011
relative JC-1 red fluorescence ([2]; 10 µM, 56 h): 0.5554 ± 0.0055
relative JC-1 red fluorescence ([2]; 10 µM, 64 h): 0.534 ± 0.0088
relative JC-1 red fluorescence ([2]; 10 µM, 72 h): 0.522 ± 0.0061
relative JC-1 red fluorescence ([2]; 100 µM, 8 h): 0.845 ± 0.018
relative JC-1 red fluorescence ([2]; 100 µM, 16 h): 0.7936 ± 0.0034
relative JC-1 red fluorescence ([2]; 100 µM, 24 h): 0.75 ± 0.011
relative JC-1 red fluorescence ([2]; 100 µM, 32 h): 0.709 ± 0.022
relative JC-1 red fluorescence ([2]; 100 µM, 40 h): 0.674 ± 0.027
relative JC-1 red fluorescence ([2]; 100 µM, 48 h): 0.662 ± 0.035
relative JC-1 red fluorescence ([2]; 100 µM, 56 h): 0.646 ± 0.04
relative JC-1 red fluorescence ([2]; 100 µM, 64 h): 0.639 ± 0.045
relative JC-1 red fluorescence ([2]; 100 µM, 72 h): 0.63 ± 0.052
